Results on one molecule are retold here after article PMC3394770, “Ipomoelin, a Jacalin-Related Lectin with a Compact Tetrameric Association and Versatile Carbohydrate Binding Properties Regulated by Its N Terminus” (PLoS ONE, 2012).

This test concerns the target truncated IPO (ΔN10IPO) (sweet potato (Ipomoea batatas cv. Tainung 57)) (UniProt P93193). The test can be described thus: SEC; HiLoad 16/60 Superdex 200; 27 mM Tris-HCl pH 7.0, 2 M NaCl with 1 M glucose (to eliminate binding to the dextran matrix); 2 ml of 0.5 mg/ml protein, 0.6 ml/min; mass from the regression of BioRad standard markers; both purified. (In gel filtration, larger molecules generally elute earlier.)

No constants are given. Whether binding was seen depends on the method and setting.

B1: truncated IPO (ΔN10IPO) (domain or fragment, UniProt P93193 11-154)
chain: ARSGPVGSNGGQFWSFRPVRPLNKIVLSFSGSPDQTLNLISITFSSNPTDIITVGGVGPEPLTYTETVNIDGDIIEISGMIANYKGYNVIRSIKFTTNKKEYGPYGANAGTPFNIKIPDGNKIVGFFGNSGWYVDAIGAYYTAK
B1: the binding result is “no binding (tested: 0.5 mg/ml)”.
